Counter-ions that a name gives are not always drawn. The list shows a part of the results. The calls rarely recur for the same compound in another form.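 Kinases, fused to nanoluciferase, were expressed in K562 cells; luminescence was measured every 4 h from 2 to 18 h as percent of control (DMSO = 100%, positive control = 0%). A time point is decreased if signal falls significantly (2 sigma). Hits were called by the authors by a rule that is not shown; the count of time points alone does not decide it.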
Columns and labels:
Test in all cases: number of time points (of 5) at which kinase-Nluc abundance scored as decreased, DMSO-normalised (count); higher = more persistent destabilization
Conditions in all cases: K562; 2-18 h
ALK = ALK (UniProt Q9UM73)
ARAF = ARAF (UniProt P10398)
AURKA = AURKA (UniProt O14965)
AURKB = AURKB (UniProt Q96GD4)
AURKC = AURKC (UniProt Q9UQB9)
BLK = BLK (UniProt P51451)
BMX = BMX (UniProt P51813)
BRAF = BRAF (UniProt P15056)
BRAF_V600E = test system: BRAF_V600E
BTK = BTK (UniProt Q06187)
CAMK2A = CAMK2A (UniProt Q9UQM7)
CAMK2G = CAMK2G (UniProt Q13555)
CDK10 = CDK10 (UniProt Q15131)
CDK2 = CDK2 (UniProt P24941)
CDK3 = CDK3 (UniProt Q00526)
CDK5 = CDK5 (UniProt Q00535)
CDK6 = CDK6 (UniProt Q00534)
CHEK2 = CHEK2 (UniProt O96017)
CSF1R = CSF1R (UniProt P07333)
CSK = CSK (UniProt P41240)

Chains of the proteins cited; added tags and fusions are not shown. Lines headed by an entry give the natural chain unless they say otherwise; changes in a name come on top.
UniProt Q9UM73: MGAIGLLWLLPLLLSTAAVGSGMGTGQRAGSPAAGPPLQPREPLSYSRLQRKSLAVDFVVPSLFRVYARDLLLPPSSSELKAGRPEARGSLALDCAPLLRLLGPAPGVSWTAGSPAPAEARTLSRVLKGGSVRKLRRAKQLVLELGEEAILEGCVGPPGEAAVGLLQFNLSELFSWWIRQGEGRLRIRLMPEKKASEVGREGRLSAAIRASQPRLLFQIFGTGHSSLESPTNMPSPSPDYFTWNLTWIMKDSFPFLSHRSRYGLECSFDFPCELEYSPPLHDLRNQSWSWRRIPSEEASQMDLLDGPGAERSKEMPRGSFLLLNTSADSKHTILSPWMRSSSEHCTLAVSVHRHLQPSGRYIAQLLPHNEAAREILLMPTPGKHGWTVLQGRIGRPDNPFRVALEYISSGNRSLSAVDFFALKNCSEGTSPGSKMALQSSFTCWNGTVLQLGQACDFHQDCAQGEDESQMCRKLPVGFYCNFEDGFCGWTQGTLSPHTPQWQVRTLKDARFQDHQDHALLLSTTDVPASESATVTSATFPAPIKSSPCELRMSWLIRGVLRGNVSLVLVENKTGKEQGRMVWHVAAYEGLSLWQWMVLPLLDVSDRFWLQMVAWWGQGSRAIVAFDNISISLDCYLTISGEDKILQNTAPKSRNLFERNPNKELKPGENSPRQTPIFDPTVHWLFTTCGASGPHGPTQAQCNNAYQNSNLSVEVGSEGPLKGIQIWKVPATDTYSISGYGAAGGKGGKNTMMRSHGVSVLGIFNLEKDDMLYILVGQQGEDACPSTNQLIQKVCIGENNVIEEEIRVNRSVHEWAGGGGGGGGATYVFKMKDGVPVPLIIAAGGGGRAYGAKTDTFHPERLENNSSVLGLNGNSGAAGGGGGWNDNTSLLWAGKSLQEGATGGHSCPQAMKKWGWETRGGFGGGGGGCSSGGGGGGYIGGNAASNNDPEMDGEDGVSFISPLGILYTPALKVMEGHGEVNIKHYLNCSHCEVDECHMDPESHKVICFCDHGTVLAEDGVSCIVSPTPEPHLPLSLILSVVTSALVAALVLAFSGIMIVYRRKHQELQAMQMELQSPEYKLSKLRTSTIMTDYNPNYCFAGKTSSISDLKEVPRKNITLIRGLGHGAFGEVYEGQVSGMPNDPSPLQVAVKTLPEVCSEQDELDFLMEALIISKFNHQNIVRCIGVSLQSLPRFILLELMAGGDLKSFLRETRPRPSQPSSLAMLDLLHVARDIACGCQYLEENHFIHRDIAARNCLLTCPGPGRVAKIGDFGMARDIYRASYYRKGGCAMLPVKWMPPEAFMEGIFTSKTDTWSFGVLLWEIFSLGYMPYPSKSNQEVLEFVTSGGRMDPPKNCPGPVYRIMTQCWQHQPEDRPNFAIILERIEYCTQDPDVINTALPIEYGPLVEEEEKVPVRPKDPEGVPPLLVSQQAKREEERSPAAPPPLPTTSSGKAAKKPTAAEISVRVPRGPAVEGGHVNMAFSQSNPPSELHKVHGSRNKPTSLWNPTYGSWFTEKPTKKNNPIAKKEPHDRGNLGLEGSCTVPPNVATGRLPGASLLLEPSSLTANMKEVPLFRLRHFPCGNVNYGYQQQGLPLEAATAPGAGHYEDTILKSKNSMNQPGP
UniProt P10398: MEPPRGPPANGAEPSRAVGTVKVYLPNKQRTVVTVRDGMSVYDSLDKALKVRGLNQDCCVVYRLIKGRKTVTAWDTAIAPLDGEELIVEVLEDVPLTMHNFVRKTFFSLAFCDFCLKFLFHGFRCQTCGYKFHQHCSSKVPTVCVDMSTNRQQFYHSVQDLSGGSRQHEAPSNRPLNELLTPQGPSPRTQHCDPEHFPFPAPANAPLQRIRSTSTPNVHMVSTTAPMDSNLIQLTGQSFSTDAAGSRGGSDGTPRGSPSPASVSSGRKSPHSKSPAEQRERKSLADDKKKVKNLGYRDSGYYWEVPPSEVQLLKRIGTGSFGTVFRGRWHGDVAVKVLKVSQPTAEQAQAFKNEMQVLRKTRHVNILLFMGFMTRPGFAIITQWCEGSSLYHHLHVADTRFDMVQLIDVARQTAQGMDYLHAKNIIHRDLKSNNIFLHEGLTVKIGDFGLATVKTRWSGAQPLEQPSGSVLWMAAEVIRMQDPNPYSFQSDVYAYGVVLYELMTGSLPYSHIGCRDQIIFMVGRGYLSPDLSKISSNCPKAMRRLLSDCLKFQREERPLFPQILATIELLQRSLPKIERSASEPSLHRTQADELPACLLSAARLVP
UniProt O14965: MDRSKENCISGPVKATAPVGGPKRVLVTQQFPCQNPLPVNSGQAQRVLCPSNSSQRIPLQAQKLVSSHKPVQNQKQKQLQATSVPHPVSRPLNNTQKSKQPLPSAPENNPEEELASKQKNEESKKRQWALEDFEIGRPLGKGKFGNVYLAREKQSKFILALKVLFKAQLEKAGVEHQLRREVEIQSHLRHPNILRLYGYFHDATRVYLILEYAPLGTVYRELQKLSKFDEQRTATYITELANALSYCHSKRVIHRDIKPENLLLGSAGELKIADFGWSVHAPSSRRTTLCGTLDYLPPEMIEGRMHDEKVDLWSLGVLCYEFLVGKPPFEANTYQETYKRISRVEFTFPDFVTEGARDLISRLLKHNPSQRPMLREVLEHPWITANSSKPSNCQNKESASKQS
UniProt Q96GD4, whole entry: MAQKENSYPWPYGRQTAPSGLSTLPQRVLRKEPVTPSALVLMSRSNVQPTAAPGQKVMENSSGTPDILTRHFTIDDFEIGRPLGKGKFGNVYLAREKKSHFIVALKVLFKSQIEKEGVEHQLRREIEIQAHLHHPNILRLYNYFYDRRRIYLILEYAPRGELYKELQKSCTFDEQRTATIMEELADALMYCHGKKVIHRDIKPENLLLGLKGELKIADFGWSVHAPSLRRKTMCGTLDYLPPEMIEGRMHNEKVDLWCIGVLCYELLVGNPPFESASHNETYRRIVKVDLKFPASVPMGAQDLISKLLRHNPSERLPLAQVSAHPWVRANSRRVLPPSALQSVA
UniProt Q9UQB9: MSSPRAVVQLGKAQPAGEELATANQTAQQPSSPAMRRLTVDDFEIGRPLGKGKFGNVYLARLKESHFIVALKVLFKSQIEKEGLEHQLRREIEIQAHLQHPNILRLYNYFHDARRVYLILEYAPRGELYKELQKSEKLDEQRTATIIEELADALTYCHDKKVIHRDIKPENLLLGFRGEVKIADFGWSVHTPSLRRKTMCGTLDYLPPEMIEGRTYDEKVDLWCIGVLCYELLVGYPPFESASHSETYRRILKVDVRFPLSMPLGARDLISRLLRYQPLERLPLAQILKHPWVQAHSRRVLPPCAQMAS
UniProt P51451: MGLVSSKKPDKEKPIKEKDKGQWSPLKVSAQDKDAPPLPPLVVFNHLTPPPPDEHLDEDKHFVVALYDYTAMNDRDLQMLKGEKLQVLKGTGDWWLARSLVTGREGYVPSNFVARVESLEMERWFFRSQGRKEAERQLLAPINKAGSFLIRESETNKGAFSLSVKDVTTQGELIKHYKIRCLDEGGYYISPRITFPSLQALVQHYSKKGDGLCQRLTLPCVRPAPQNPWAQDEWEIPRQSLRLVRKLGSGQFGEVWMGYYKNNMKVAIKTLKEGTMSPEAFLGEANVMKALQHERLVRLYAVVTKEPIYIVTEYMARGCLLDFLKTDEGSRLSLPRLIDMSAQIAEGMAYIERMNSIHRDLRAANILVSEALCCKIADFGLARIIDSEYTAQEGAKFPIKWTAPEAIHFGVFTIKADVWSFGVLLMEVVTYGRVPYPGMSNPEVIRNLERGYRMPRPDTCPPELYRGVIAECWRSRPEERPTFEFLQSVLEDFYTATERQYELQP
UniProt P51813: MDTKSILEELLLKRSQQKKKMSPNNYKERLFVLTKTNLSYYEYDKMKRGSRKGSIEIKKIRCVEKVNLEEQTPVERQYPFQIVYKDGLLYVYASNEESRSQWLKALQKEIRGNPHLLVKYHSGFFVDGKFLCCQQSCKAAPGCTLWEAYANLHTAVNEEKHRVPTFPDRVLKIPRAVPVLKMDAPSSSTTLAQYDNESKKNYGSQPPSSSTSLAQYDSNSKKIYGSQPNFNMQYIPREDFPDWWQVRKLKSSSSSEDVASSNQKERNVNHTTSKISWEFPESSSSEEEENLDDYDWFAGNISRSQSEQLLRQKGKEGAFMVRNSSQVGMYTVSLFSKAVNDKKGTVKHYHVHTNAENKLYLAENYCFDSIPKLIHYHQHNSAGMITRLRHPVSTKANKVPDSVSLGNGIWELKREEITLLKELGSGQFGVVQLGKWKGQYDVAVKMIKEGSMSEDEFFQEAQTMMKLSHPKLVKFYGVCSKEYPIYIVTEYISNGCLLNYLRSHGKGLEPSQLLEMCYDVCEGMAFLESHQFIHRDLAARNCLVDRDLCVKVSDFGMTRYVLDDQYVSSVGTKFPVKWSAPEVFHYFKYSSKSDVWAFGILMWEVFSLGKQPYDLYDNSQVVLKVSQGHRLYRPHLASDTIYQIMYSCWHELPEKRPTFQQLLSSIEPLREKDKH
UniProt P15056, whole entry, looked up: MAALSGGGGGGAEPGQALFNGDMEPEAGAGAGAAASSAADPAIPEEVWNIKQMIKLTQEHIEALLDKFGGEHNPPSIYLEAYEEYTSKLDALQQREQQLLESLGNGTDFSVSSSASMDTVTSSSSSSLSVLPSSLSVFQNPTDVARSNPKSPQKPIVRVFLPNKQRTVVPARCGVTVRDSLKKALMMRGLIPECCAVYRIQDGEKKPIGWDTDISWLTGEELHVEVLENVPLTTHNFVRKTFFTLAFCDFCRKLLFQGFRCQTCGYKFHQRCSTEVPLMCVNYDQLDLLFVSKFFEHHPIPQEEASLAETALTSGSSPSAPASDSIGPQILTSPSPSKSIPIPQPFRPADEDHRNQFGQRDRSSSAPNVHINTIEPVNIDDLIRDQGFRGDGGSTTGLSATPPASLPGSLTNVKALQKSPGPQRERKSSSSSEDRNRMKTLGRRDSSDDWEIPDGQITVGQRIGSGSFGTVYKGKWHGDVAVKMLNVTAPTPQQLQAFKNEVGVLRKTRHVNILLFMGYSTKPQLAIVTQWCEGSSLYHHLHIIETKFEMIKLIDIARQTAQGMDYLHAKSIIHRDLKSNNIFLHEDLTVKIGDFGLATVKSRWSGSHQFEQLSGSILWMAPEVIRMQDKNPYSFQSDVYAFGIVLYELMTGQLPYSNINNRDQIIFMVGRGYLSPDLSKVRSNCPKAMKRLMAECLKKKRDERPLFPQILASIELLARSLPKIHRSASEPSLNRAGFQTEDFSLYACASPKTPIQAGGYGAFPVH
UniProt Q06187: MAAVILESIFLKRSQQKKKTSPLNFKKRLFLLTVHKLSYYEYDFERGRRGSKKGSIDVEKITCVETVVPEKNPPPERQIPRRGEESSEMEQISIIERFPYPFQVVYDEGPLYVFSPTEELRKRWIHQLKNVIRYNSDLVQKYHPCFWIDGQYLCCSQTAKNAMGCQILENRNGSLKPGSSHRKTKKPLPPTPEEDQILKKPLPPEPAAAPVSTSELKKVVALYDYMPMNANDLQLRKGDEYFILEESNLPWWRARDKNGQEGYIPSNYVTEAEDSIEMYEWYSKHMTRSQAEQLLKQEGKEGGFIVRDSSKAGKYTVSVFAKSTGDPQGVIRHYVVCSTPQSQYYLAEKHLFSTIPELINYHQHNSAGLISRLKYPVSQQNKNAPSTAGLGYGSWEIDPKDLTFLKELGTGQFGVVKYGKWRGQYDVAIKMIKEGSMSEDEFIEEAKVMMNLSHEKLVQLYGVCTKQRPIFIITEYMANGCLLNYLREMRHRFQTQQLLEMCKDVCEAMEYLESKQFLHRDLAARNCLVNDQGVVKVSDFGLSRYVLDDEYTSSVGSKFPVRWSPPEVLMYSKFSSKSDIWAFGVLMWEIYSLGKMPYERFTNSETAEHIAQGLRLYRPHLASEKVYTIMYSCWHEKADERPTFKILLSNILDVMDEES
UniProt O96017, whole entry: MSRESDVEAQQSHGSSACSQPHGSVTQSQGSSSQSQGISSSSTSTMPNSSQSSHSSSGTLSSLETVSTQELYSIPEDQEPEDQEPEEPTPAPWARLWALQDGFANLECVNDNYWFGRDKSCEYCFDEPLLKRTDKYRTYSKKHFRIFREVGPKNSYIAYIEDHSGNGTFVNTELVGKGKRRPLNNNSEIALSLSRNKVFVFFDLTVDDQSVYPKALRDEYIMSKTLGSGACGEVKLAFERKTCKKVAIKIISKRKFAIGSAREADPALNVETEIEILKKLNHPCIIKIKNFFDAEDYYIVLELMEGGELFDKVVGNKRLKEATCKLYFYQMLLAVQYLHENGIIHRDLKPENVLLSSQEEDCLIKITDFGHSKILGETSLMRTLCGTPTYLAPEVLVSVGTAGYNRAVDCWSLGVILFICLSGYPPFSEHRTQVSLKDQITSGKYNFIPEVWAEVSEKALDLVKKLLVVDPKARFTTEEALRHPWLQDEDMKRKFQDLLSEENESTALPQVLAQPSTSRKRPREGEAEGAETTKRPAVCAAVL

Measured: number of time points

CC(C)c1cnn2c(NCc3ccccc3)cc(NCCCCCCN)nc12 [BS-181 (hydrochloride)] (10 µM)
0: all assays above

CC(C)(O)c1cc2nc(-c3cnc(N)nc3)nc(N3CCOCC3)c2s1 (2.5 µM)
1: ALK | BRAF | CHEK2 | CSF1R
2: BMX
3: AURKA | BLK | BRAF_V600E
0: all other assays above

O=C1NC(=O)C(c2ccccc2[N+](=O)[O-])=C1Nc1ccc(O)c(Cl)c1 (10 µM)
0: all assays above

O=C(NCc1cccc(O)c1)c1cc2cc(F)ccc2[nH]1 (10 µM)
0: all assays above

C=CC(=O)N1CCC[C@@H](n2c(=O)n(-c3ccc(Oc4ccccc4)cc3)c3c(N)nccc32)C1 [Tolebrutinib] (10 µM)
0: all assays above

CC(=O)NCC(=O)N[C@@H](C)C(=O)N[C@@H](CCC(N)=O)C(=O)N[C@@H](Cc1ccccc1)C(=O)N[C@@H](CO)C(=O)N[C@@H](CCCCN)C(=O)N[C@H](C(=O)N[C@@H](C)C(=O)N[C@@H](C)C(=O)N[C@@H](CCCCN)C(=O)O)[C@@H](C)O (10 µM)
0: all assays above

C[C@@H](N)COc1ccc(-c2cnc3ccc(N[C@H](C)c4cccc(F)c4)nn23)cc1 [Taletrectinib] (2.5 µM)
0: all assays above

CN1CCC(c2ccccc2CC(C)(C)Nc2nc(N3CCOCC3)nc(-n3c(S(C)(=O)=O)nc4ccccc43)n2)CC1 (10 µM)
0: all assays above

Oc1ccc2ccccc2c1SSc1c(O)ccc2ccccc12 (10 µM)
0: all assays above

COc1cc(Nc2nc3ccccc3nc2NS(=O)(=O)c2ccc(NC(=O)c3ccc(C)c(OC)c3)cc2)cc(OC)c1 (10 µM)
1: CDK2
0: all other assays above

CC[C@H](C)[C@H](NC(=O)[C@H](CCCCN)NC(=O)[C@H](CC(C)C)NC(=O)[C@@H]1CCCN1C(=O)[C@H](CCC(=O)O)NC(=O)[C@H](Cc1ccc(O)cc1)NC(=O)[C@@H](NC(=O)[C@H](CO)NC(=O)CNC(=O)[C@H](CO)NC(=O)[C@H](CCCN=C(N)N)NC(=O)[C@H](CCCCN)NC(=O)[C@@H](NC(=O)[C@@H](N)CCCN=C(N)N)[C@@H](C)O)C(C)C)C(=O)O [Malantide] (10 µM)
0: all assays above

COC[C@H]1Cn2cc(-c3nc(Nc4ccnn4C)ncc3C)nc2C(=O)N1Cc1ccc(F)c(F)c1 (10 µM)
1: BRAF_V600E
0: all other assays above

CC(C)(C)c1ccc(C(=O)Nc2cn3cc(-n4ccnc4)ccc3n2)cc1 (10 µM)
0: all assays above

CN(C/C=C/C(=O)Nc1ccc(C(=O)Nc2cccc(Nc3ncc(Cl)c(-c4c[nH]c5ccccc45)n3)c2)cc1)CCCNC(=O)NCCOCCOCCOCCNC(=O)CCCC[C@@H]1SC[C@@H]2NC(=O)N[C@@H]21 (2.5 µM)
1: BRAF_V600E
3: ALK | AURKA | BLK | BRAF
2: AURKB | AURKC | BMX | CDK5 | CSF1R
0: all other assays above

O=C(Nc1nccs1)C(c1cc(F)ccc1O)N1Cc2ccc(-c3ccc(N4CCNCC4)cc3)cc2C1=O (racemic) (10 µM)
2: ALK
1: BLK | CSF1R
0: all other assays above

C=CC(=O)Nc1cc(C(=O)NC)cc(-c2n[nH]c3ccccc23)c1 (10 µM)
4: BRAF_V600E
2: CHEK2
0: all other assays above

C[C@@H]1CC[C@]2(C(=O)O)CC[C@]3(C)C(=CC[C@@H]4[C@@]5(C)CC[C@H](O)[C@@](C)(CO)[C@@H]5CC[C@]43C)[C@@H]2[C@]1(C)O [Rotundic acid] (10 µM)
0: all assays above

CCn1c(-c2nonc2N)nc2c(C#CCO)ncc(OCCCN)c21 [AKT Kinase Inhibitor] (10 µM)
2: BMX
0: all other assays above

COc1cccc(Nc2ncnn3ccc(CN4CC[C@@H](N)[C@H](O)C4)c23)c1 (2.5 µM)
2: BRAF_V600E
1: ALK | BLK | BMX | BRAF | CAMK2G
0: all other assays above

Retrieved one by one from the entries so far (2):
CCn1c(-c2nonc2N)nc2c(C#CCO)ncc(OCCCN)c21 [AKT Kinase Inhibitor] (10 µM)
2: BMX
0: all other assays above

C[C@@H]1CC[C@]2(C(=O)O)CC[C@]3(C)C(=CC[C@@H]4[C@@]5(C)CC[C@H](O)[C@@](C)(CO)[C@@H]5CC[C@]43C)[C@@H]2[C@]1(C)O [Rotundic acid] (10 µM)
0: all assays above

(further entries)

O=C(O)/C=C/c1cc(Br)c(Br)c(Br)c1Br (10 µM)
0: all assays above

CCCCCC1CC1CC1CC1CCCCCCCC(=O)O (stereo not given) (10 µM)
0: all assays above

CC(C)=C/C=C1\O[C@@H]2CC(C)=CC(=O)[C@@H]2[C@]1(C)O [Bisabolangelone] (10 µM)
0: all assays above

Source: the supplement of paper PMC12823440, “Inhibitors supercharge kinase turnover through native proteolytic circuits” (Nature, 2025)
